The list shows a part of the results.
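Also: competitive chemoproteomic profiling in live THP-1 cells with an iodoacetamide desthiobiotin (IA-DTB) probe, comparing probe-labelled peptide intensities in compound-treated cells against DMSO-treated controls.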

Compound in this experiment: CC1Cc2ccccc2N1C(=O)C1CCCN(C1)C(=O)CCl (mixture of isomers) [TRIM25 ligand 11 (diastereomer mixture)]
In words: probe-labelled cysteine peptide fold change vs DMSO (competition) (log2 fold change); higher = less target engagement (more negative = stronger competition). The note with it: 50 µM; THP-1; incubation time: 4 h.
Take “DHPS_P49366_177_IGNLLVPNENYCK (UniProt P49366)”: the “probe-labelled cysteine peptide fold change” value was -0.193. Under “DNM1L_O00429_367_ICYIFHETFGR (UniProt O00429)” stands -0.178; under “DNAJC13_O75165_2110_RADTVGLACEAINR (UniProt O75165)”, -0.0276; under “DIAPH1_O60610_964_LQFSEQVENIKPEIVSVTAACEELR (UniProt O60610)”, 0.06. Regarding “DNASE1L1_P49184_187_DVILLGDFNADCASLTK (UniProt P49184)”, the “probe-labelled cysteine peptide fold change” value was determined as 0.0579. Under “DIS3_Q9Y2L1_549_RIDMVPELLSSNLCSLK (UniProt Q9Y2L1)” stands 0.00785.

With “DNAJA2_O60884_308_VIEPGCVR (UniProt O60884)”, the “probe-labelled cysteine peptide fold change” value turned out to be 0.0856. For “DNAJC7_Q99615_164_KVVFCMDR (UniProt Q99615)” the value was -0.0673.

As to “DIDO1_Q9BTC0_261+273_AAQDIKDEEPGDLGRPKPECEGYDPNALYCICR (UniProt Q9BTC0)”, the “probe-labelled cysteine peptide fold change” value is -0.0252.

Turning to “DKC1_O60832_74_TTHYTPLACGSNPLKR (UniProt O60832)”, the “probe-labelled cysteine peptide fold change” value was -0.303. Take “DLGAP5_Q15398_381_TIQQDSNKLPCPLGPLTVWHEEHVLNK (UniProt Q15398)”: the “probe-labelled cysteine peptide fold change” value is -0.00596. On to “DHX36_Q9H2U1_611_VQPGHCYHLYNGLR (UniProt Q9H2U1)”, for which the “probe-labelled cysteine peptide fold change” value amounted to 0.0346. Under “DHX15_O43143_226_FEDCSSAK (UniProt O43143)” stands -0.0805; under “DHX9_Q08211_1099_LQISHEAAACITGLR (UniProt Q08211)”, 0.019; under “DIAPH3_Q9NSV4_464_LIDECVSQIVLHR (UniProt Q9NSV4)”, 0.0797.

In the case of “DNM2_P50570-3_427_CVDLVVSELATVIKK (UniProt P50570)”, the “probe-labelled cysteine peptide fold change” value is 0.127. In the case of “DIS3_Q9Y2L1_562_LAFSCIWEMNHNAEILK (UniProt Q9Y2L1)”, the “probe-labelled cysteine peptide fold change” value amounted to 0.183. For the target “DICER1_Q9UPY3_801_CFGILTAKPIPQIPHFPVYTR (UniProt Q9UPY3)”, the “probe-labelled cysteine peptide fold change” value was -0.035.

Regarding “DNAJA1_P31689_261_RGEDLFMCMDIQLVEALCGFQK (UniProt P31689)”, the “probe-labelled cysteine peptide fold change” value is 0.0878. Regarding “DKC1_O60832_74_TTHYTPLACGSNPLK (UniProt O60832)”, the “probe-labelled cysteine peptide fold change” value was -0.115. “DNAJC7_Q99615_7_AAAAECDVVMAATEPELLDDQEAKR (UniProt Q99615)”: the “probe-labelled cysteine peptide fold change” value was -0.0303. “DNM2_P50570-3_427_CVDLVVSELATVIK (UniProt P50570)”: the “probe-labelled cysteine peptide fold change” value was determined as 0.0756. With “DHX29_Q7Z478_1245_LACIVETAQGK (UniProt Q7Z478)”, the “probe-labelled cysteine peptide fold change” value is 0.0083.

Consider “DNAJC10_Q8IXB1_301_LSGMLDGLVNVGWMDCATQDNLCK (UniProt Q8IXB1)”, for which the “probe-labelled cysteine peptide fold change” value was 0.0761. As to “DNAJB1_P25685_267_EALCGCTVNVPTLDGR (UniProt P25685)”, the “probe-labelled cysteine peptide fold change” value was determined as 0.0369.

On to “DIS3L2_Q8IYB7_739_QADHCNDR (UniProt Q8IYB7)”, for which the “probe-labelled cysteine peptide fold change” value turned out to be 0.0406. On to “DHX30_Q7L2E3_673_GEPGGILCFLPGWQEIK (UniProt Q7L2E3)”, for which the “probe-labelled cysteine peptide fold change” value worked out at 0.466. As to “DNAJB11_Q9UBS4_196_FQMTQEVVCDECPNVK (UniProt Q9UBS4)”, the “probe-labelled cysteine peptide fold change” value worked out at 0.0543. For “DIP2A_Q14689_543_ALTQACGYSEAETLTNVLDFKR (UniProt Q14689)” the value was 0.286; for “DISC1_Q9NRI5_844_EAAASCMTAGVHEAQA (UniProt Q9NRI5)”, -0.261; for “DNAJA3_Q96EY1_253+256_VQHCHYCGGSGMETINTGPFVMR (UniProt Q96EY1)”, -0.0973.

With “DNM1L_O00429_300_DCLPELK (UniProt O00429)”, the “probe-labelled cysteine peptide fold change” value amounted to 0.111. For the target “DHRS7_Q9Y394_233_TELATYPGIIVSNICPGPVQSNIVENSLAGEVTK (UniProt Q9Y394)”, the “probe-labelled cysteine peptide fold change” value is 0.0763.

As to “DNAJC7_Q99615_317_LDDAIEDCTNAVK (UniProt Q99615)”, the “probe-labelled cysteine peptide fold change” value is 0.0796. As to “DHX38_Q92620_27_GDTSEDASIHRLEGTDLDCQVGGLICK (UniProt Q92620)”, the “probe-labelled cysteine peptide fold change” value was -0.294. As for “DHX30_Q7L2E3_606_YFGGCPVIK (UniProt Q7L2E3)”, the “probe-labelled cysteine peptide fold change” value turned out to be 0.124.

(Values after the supplement of paper PMC12067093, “Discovery and optimisation of a covalent ligand for TRIM25 and its application to targeted protein ubiquitination” (Chemical Science, 2025).)
